Data published in the supplement of paper PMC8732350.
Counter-ions that a name gives are not always drawn. ± gives the standard deviation of the averaged measurements. Some of the results follow. This data set is noisy: repeats of one test often differ as much as different tests do.

test system: A549; experiment: surface PD-L1 immunofluorescence intensity relative to IFN-gamma-only control (ratio); higher = more PD-L1 expression; settings: 10 µM; exposure time 24 h; IFN-gamma 100 ng/mL

Compound	surface PD-L1 immunofluorescence intensity
O=C(O)CNC(=O)c1c(O)c2ccccc2n(Cc2ccccc2)c1=O	1.03
NC1(c2ccccc2Cl)CCCCC1=O (stereo not given) [Norketamine hydrochloride]	1.03
CC(CCc1ccccc1)NC(C)C(O)c1ccc(O)cc1 (stereo not given) [Nylidrin]	0.95
COc1cccc(C2(O)CCCCC2CN(C)C)c1 (stereo not given) [Tramadol hydrochloride]	1.04
CC(=O)OC1CN2CCC1CC2 (stereo not given) [Aceclidine Hydrochloride]	1.16
CN1C[C@H](C(=O)N[C@]2(C)O[C@@]3(O)[C@@H]4CCCN4C(=O)[C@H](Cc4ccccc4)N3C2=O)C[C@@H]2c3cccc4[nH]cc(c34)C[C@H]21 [Dihydroergotamine mesylate]	0.984
O=C1NCN(c2ccccc2)C12CCN(CC1COc3ccccc3O1)CC2 (stereo not given) [Spiroxatrine]	0.998
C[N+]1(C)[C@@H]2CC[C@H]1C[C@@H](OC(=O)C(CO)c1ccccc1)C2 (stereo not given in full) [Methylatropine nitrate]	1.02
c1ccc2nc(N3CCNCC3)ccc2c1 [Quipazine dimaleate salt]	0.9
C[N+](C)(C)CCCCCCCCCC[N+](C)(C)C [Decamethonium bromide]	1.01
Clc1ccc(C2=CCCC3CCC2N3)cn1 (stereo not given) [UB 165 fumarate]	1.04
CO[C@@H]1[C@H](OC(=O)NC(=O)CCl)CC[C@]2(CO2)[C@H]1[C@@]1(C)O[C@@H]1CC=C(C)C	1.03
CCCCCCC[n+]1ccc(-c2cc[n+](CCCCCCC)cc2)cc1 [DHBP dibromide]	0.893
C=CCN1C[C@H](C)N([C@H](c2ccc(C(=O)N(CC)CC)cc2)c2cccc(OC)c2)C[C@H]1C	1.12
C=CCN1C[C@H](C)N([C@H](c2ccc(C(=O)N(CC)CC)cc2)c2cccc(O)c2)C[C@H]1C	1.01
O=[N+]([O-])O[C@@H]1CO[C@H]2[C@@H]1OC[C@@H]2O [Isosorbide mononitrate]	0.999
N=C(N)NN [Aminoguanidine hydrochloride]	0.935
C[C@H](N)[C@H](O)c1ccc(O)c(O)c1 [Levonordefrin]	0.998
CC(C)N(CCC(C(N)=O)(c1ccccc1)c1ccccn1)C(C)C (stereo not given) [Disopyramide]	0.906
CN1[C@@H]2CC[C@H]1C[C@@H](OC(=O)[C@H](CO)c1ccccc1)C2 [Hyoscyamine (Daturine)]	0.955
CN(C)CCN(C)CCc1ccc(Cl)c(Cl)c1 [BD 1047 dihydrobromide]	1.02
O=C(O)Cc1cccnc1C(=O)O [Homoquinolinic acid]	1.06
O=[N+]([O-])c1cc(O)c(O)c([N+](=O)[O-])c1	1.01
C[C@H]([C@H](O)CCC(C)(C)O)[C@H]1CC[C@@]2(O)C3=CC(=O)[C@@H]4C[C@@H](O)[C@@H](O)C[C@]4(C)[C@H]3CC[C@]12C [Ecdysone]	0.971
c1ccc(CCCCN2CCC(c3ccccc3)CC2)cc1 [4-PPBP maleate]	0.956

Part of the list above, in markdown:

| Compound | surface PD-L1 immunofluorescence intensity |
| --- | --- |
| O=[N+]([O-])O[C@@H]1CO[C@H]2[C@@H]1OC[C@@H]2O [Isosorbide mononitrate] | 0.999 |
| N=C(N)NN [Aminoguanidine hydrochloride] | 0.935 |
| C[C@H](N)[C@H](O)c1ccc(O)c(O)c1 [Levonordefrin] | 0.998 |

Following part.

Compound	surface PD-L1 immunofluorescence intensity
C[C@H](N)Cc1cnc[nH]1 [(S)-(+)-a-Methylhistamine dihydrobromide]	0.966
c1cc2c(cc1[C@H]1OC[C@H]3[C@@H]1CO[C@@H]3c1ccc3c(c1)OCO3)OCO2 [Sesamin (Fagarol)]	1.05
COc1ccc(CN2CCNCC2)c(OC)c1OC [Trimetazidine dihydrochloride]	0.939
COc1ccc2c(c1)c(CCN1CCOCC1)c(C)n2C(=O)c1cccc(Cl)c1Cl	0.942
O=C(N[C@H]1CN2CCC1CC2)c1ccc(Cl)cc1	0.938
N#Cc1ccc(N2CCN(C(=O)COc3ccc4[nH]cc(CCN)c4c3)CC2)cc1 [Donitriptan hydrochloride]	1.04
CC(C)[N+](C)(CCC(C(N)=O)(c1ccccc1)c1ccccc1)C(C)C [Isopropamide iodide]	0.993
C#C[C@]1(O)CC[C@H]2[C@@H]3CCC4=CC(=O)CC[C@]4(C)[C@H]3CC[C@@]21C [Ethisterone]	0.91 ± 0.046
O=c1[nH]c2ccccc2n1CCCN1CCC(n2c(=O)[nH]c3cc(Cl)ccc32)CC1 [Domperidone]	1.19
CC(=O)O[C@@]12CO[C@@H]1C[C@@H](O)[C@@]1(C)C(=O)[C@H](O)C3=C(C)[C@@H](O)C[C@@](O)([C@@H](OC(=O)c4ccccc4)[C@H]21)C3(C)C [10-DAB (10-Deacetylbaccatin)]	0.914
CC(C)CC(N(C)C)C1(c2ccc(Cl)cc2)CCC1 (stereo not given) [Sibutramine HCl]	0.974
C=CCN1CC[C@]23c4c5ccc(O)c4O[C@H]2/C(=N/NC(=O)c2ccccc2)CC[C@@]3(O)[C@H]1C5 [Naloxone benzoylhydrazone]	0.995
CC1(C)CC(O)CC(C)(C)N1[O] [Tempol (4-Hydroxy-TEMPO)]	0.955
CC1(C)CC(O)CC(C)(C)N1[O]	0.937
CC(=O)N(C)c1cccc(-c2ccnc3c(C(=O)c4cccs4)cnn23)c1 [Indiplon]	1.05
N[C@@H](Cn1oc(=O)[nH]c1=O)C(=O)O [L-Quisqualic acid]	1.12
C[C@H](Cc1ccc(OCC(=O)O)cc1)NC[C@H](O)c1cccc(Cl)c1	0.959
S=C(NC1CCCCC1)N1CCC(c2cnc[nH]2)CC1 [Thioperamide maleate]	1.08
S=C(NC1CCCCC1)N1CCC(c2cnc[nH]2)CC1 [Thioperamide]	1.01
CN1[C@@H]2CC(O)C[C@H]1[C@@H]1O[C@@H]12 (stereo not given in full) [Scopine]	0.954
Cc1cccc(C(C)c2c[nH]cn2)c1C (stereo not given) [Medetomidine hydrochloride]	0.976
Cc1cccc(C(C)c2c[nH]cn2)c1C (stereo not given) [Medetomidine HCl]	0.866
C=C[C@H]1CN2CC[C@H]1C[C@H]2[C@H](O)c1ccnc2ccccc12 [Cinchonidine]	1.03
COC[C@H]1OC(=O)c2coc3c2[C@@]1(C)C1=C(C3=O)[C@@H]2CCC(=O)[C@@]2(C)C[C@H]1OC(C)=O [Wortmannin]	0.975 ± 0.04
CN(C(=O)Cc1ccc(Cl)c(Cl)c1)[C@H](CN1CCCC1)c1ccccc1 [ICI-199,441 hydrochloride]	0.935
